Test results reported in PubChem BioAssay AID1487 (National Center for Advancing Translational Sciences (NCATS), 2009).
This is one part of the list. Further columns of the screen follow, without active or inactive calls. The list favours compounds with an active or inconclusive main result. Potencies come from curve fits of mixed quality, noted in brackets.

Test: qHTS Assay for Modulators of Lamin A Splicing
Conditions: HeLa LMNA splicing GFP/RFP minigene ratio, 48 h
Outline: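 Read-out is the ratio of GFP to DsRed2 object intensity, acquired by 488 nm laser-scanning cytometry on HeLa lamin A-EGFP minigene reporter cells. Compound incubation 48 hrs at 37 °C in Opti-MEM with 2% FBS; DMSO 0.5% final.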

[1] = measured here: GFP splicing reporter channel
[2] = measured here: RFP viability control channel

## COc1ccc(CCN(Cc2nc3ccccc3c(=O)[nH]2)C(=O)C2CC2)cc1
[1]
  AC50: 0.00316 µM [falling, full curve, poor fit]
[2]
  AC50: 0.00355 µM [falling, full curve, poor fit]

## O=C(NCc1ccccn1)C1CC(c2ccc(Cl)c(Cl)c2)=NO1 (centres undefined)
[1]
  AC50: 35.5 µM [falling, single point]
[2]
  AC50: 35.5 µM [falling, single point]

## CCSc1nc2ccccc2n1Cc1ccccc1F
[1]
  AC50: 12.6 µM [rising, single point]
[2]
  AC50: 25.1 µM [rising, single point]

## C[C@@H]1C[C@H]2[C@@H]3C[C@H](F)C4=CC(=O)C=C[C@@]4(C)[C@]3(F)[C@H](O)C[C@]2(C)[C@@]1(O)C(=O)CO
[1]
  AC50: 0.00794 µM [rising, full curve]
[2]
  AC50: 14.1 µM [falling, single point]

## Cc1cc(OCc2nc(-c3ccncc3)no2)cc(C)c1Cl
[1]
  AC50: 3.98 µM [falling, full curve, poor fit]
[2]
  AC50: 3.98 µM [falling, full curve]

## O=C1CCC(=O)N1OCCOc1ccccc1
[1]
  AC50: 0.316 µM [rising, full curve, poor fit]

## Cc1cc(C)nc(Sc2ncnc(N)c2[N+](=O)[O-])n1
[1]
  AC50: 14.1 µM [falling, partial curve, poor fit]
[2]
  AC50: 35.5 µM [falling, single point]

## O=S(=O)(c1ccccc1)c1nc(-c2ccc(Cl)cc2Cl)oc1N1CCCCC1
[1]
  AC50: 12.6 µM [rising, single point]
[2]
  AC50: 14.1 µM [rising, partial curve]

## COc1ccc(C(C)(C)C)cc1NC(=O)COC(=O)C(C)C
[1]
  AC50: 1.26 µM [falling, full curve, poor fit]

## COc1ccc2c(c1)CCC1=C2NC(=S)NC1c1ccc(N(C)C)cc1 (centres undefined)
[1]
  AC50: 35.5 µM [rising, single point]
[2]
  AC50: 31.6 µM [rising, single point]

## Oc1[nH]c2ccccc2c1N=NC(=S)NCCc1ccccc1
[2]
  AC50: 20 µM [rising, partial curve]

## COc1ccc(CCNC(=O)C2CCN(Cc3nc(-c4ccccc4F)oc3C)CC2)cc1OC
[1]
  AC50: 17.8 µM [rising, single point]
[2]
  AC50: 31.6 µM [rising, single point]

## Cc1cc(=O)n2cccc(O)c2n1
[1]
  AC50: 10 µM [falling, partial curve, poor fit]
[2]
  AC50: 6.31 µM [falling, full curve, poor fit]

## CCCCN(CCCNc1ncnc2nc[nH]c12)c1ccccc1
[1]
  AC50: 12.6 µM [rising, single point]
[2]
  AC50: 35.5 µM [rising, single point]

## COC(=O)C1=C(N)Oc2cc(N(C)C)ccc2C1c1ccccc1OC (centres undefined)
[2]
  AC50: 35.5 µM [falling, single point]

## COC(=O)c1cc2c(ccn2-c2ccc(F)cc2)n1Cc1ccc(OC)cc1
[2]
  AC50: 22.4 µM [rising, single point]

## O=C(NCCCN1CCOCC1)C(=O)N/N=C/c1c2ccccc2cc2ccccc12
[1]
  AC50: 11.2 µM [rising, partial curve]
[2]
  AC50: 12.6 µM [rising, partial curve]

## COc1ccc(S(=O)(=O)NCCSc2ccc(Cl)cc2)cc1OC
[2]
  AC50: 14.1 µM [rising, partial curve]

## O=C(Nn1cc(C(=O)N2CCN(c3ccccc3F)CC2)c2ccccc2c1=O)c1cnccn1
[1]
  AC50: 11.2 µM [falling, single point]

## COc1ccc(C(=O)Oc2c(CN3CCOCC3)cc(Cl)c3cccnc23)cc1
[2]
  AC50: 15.8 µM [rising, single point]

## COc1ccccc1C(=O)Nc1nnc(SCc2cc(=O)c3cc(Cl)ccc3[nH]2)s1
[1]
  AC50: 10 µM [falling, partial curve]
[2]
  AC50: 10 µM [falling, partial curve, poor fit]

## CC(=O)c1ccc(N2CCN(C(=O)CCCc3nc4ccccc4s3)CC2)cc1
[2]
  AC50: 25.1 µM [rising, single point]

## CC1(C)N=C(SCC(=O)Nc2ccccc2)C(c2ccc(Cl)cc2)=N1
[2]
  AC50: 11.2 µM [rising, partial curve]

## COc1cccc(S(=O)(=O)Nc2ccc(C(=O)Nc3ccncc3)cc2)c1
[1]
  AC50: 15.8 µM [rising, single point]
[2]
  AC50: 22.4 µM [rising, single point]

## COc1ccc(C(=S)N2CCCCC2)cc1Br
[1]
  AC50: 0.00501 µM [falling, full curve]
[2]
  AC50: 0.00447 µM [falling, full curve, poor fit]

## COc1cc(OC)cc(C(=O)NCC(=O)OCC(=O)N2CC(C)CC(C)C2)c1 (centres undefined)
[1]
  AC50: 0.00316 µM [falling, full curve, poor fit]

## CCc1cccc2c(C(=O)CCl)c[nH]c12
[2]
  AC50: 35.5 µM [rising, single point]

## CC(C)N(CC(N)=O)C(=O)c1sc2cc(F)ccc2c1Cl
[1]
  AC50: 6.31 µM [rising, single point]

## CC(C)COC(=O)NCCCOC(=O)Nc1ccccc1
[2]
  AC50: 20 µM [rising, single point]

## CN1CCN(C2=Cc3cc(Cl)ccc3Sc3cc(F)ccc32)CC1
[1]
  AC50: 22.4 µM [falling, partial curve]
[2]
  AC50: 20 µM [falling, partial curve]

## CC1CC(C)CN(C(=O)c2ccc3c(=O)n(Cc4ccc5c(c4)OCO5)c(=S)[nH]c3c2)C1 (centres undefined)
[1]
  AC50: 6.31 µM [rising, full curve, poor fit]
[2]
  AC50: 7.08 µM [rising, full curve]

## CCOC(=O)Cn1c(=O)n(CC2CCCO2)c2nc(-c3cccc(C)c3)nc(C(N)=O)c21 (centres undefined)
[1]
  AC50: 5.62 µM [falling, single point]
[2]
  AC50: 4.47 µM [falling, single point]

## COc1ccc(N2CCN(C(CNC(=O)c3cccc(Cl)c3)c3cccnc3)CC2)cc1 (centres undefined)
[1]
  AC50: 10 µM [rising, partial curve]
[2]
  AC50: 12.6 µM [rising, partial curve]

## O=C(O)c1ccc2cccnc2n1
[1]
  AC50: 0.126 µM [falling, full curve, poor fit]
[2]
  AC50: 6.31 µM [falling, single point]

## O=c1cc(N2CCCCC2)c(-c2ccccc2)nn1Cc1cccc(Cl)c1
[1]
  AC50: 25.1 µM [falling, partial curve]
[2]
  AC50: 20 µM [falling, partial curve]

## C#C[C@@]1(O)CC[C@@H]2[C@@H]3CCC4=CC(=O)CC[C@@H]4[C@H]3CC[C@]21C
[1]
  AC50: 3.55 µM [falling, single point]
[2]
  AC50: 10 µM [falling, partial curve]

## Cc1ccc(OCC(=O)c2cc(C)n(-c3ccccc3)c2C)c([N+](=O)[O-])n1
[2]
  AC50: 11.2 µM [rising, partial curve, poor fit]

## CCN(Cc1ccccc1)C(=O)Cn1cc(S(=O)(=O)Cc2cccc(Cl)c2)c2ccccc21
[1]
  AC50: 0.0708 µM [falling, partial curve]
[2]
  AC50: 0.112 µM [falling, partial curve]

## COc1cc(Cl)c(S(=O)(=O)N2CC(C)OC(C)C2)cc1Cl (centres undefined)
[1]
  AC50: 5.62 µM [rising, single point]

## CCC(C)NC(=O)CSc1c2c(nc3ccccc13)CCCC2 (centres undefined)
[2]
  AC50: 31.6 µM [falling, single point]

## Cc1nn(-c2ccc(Cl)cc2)c2[nH]c(=O)c(CNCc3ccc4c(c3)OCO4)cc12
[2]
  AC50: 2.51 µM [rising, full curve, poor fit]

## CC1CCN(C(=O)CSc2c(C(C)C)cnc3c2c(=O)n(C)c(=O)n3C)CC1
[1]
  AC50: 0.316 µM [rising, partial curve, poor fit]

## CC1=[N+]([O-])C(C)(C)C(c2ccc(Br)cc2)=[N+]1[O-]
[1]
  AC50: 31.6 µM [rising, single point]

## Cc1nc(Cc2ccc(OC(C)C)cc2)[nH]c(=O)c1CC(=O)O
[1]
  AC50: 0.501 µM [falling, full curve, poor fit]
[2]
  AC50: 7.94 µM [falling, partial curve, poor fit]

## O=C(c1cccs1)N1CCCN(c2ncnc3scc(-c4ccccc4)c23)CC1
[2]
  AC50: 22.4 µM [falling, single point]

## O=C(Cn1cc(S(=O)(=O)N2CCCC2)c(S(=O)(=O)N2CCCC2)c1)Nc1cccc(F)c1
[1]
  AC50: 5.01 µM [falling, partial curve]

## CC1C/C(=C/c2ccco2)C(=O)/C(=C/c2ccco2)C1 (centres undefined)
[1]
  AC50: 5.62 µM [falling, single point]
[2]
  AC50: 5.62 µM [falling, single point]

## O=C(CSc1nnc(Cc2cccs2)n1CCc1ccccc1)N1CCCc2ccccc21
[2]
  AC50: 35.5 µM [rising, single point]

## CCOc1ccc2nc(SC3CC(=O)N(c4ccc(OC)cc4)C3=O)sc2c1 (centres undefined)
[1]
  AC50: 25.1 µM [falling, single point]
[2]
  AC50: 35.5 µM [falling, partial curve]

## COc1ccccc1NC(=O)CSc1nnnn1C
[2]
  AC50: 5.62 µM [rising, single point]

## Cc1csc2nc(COC(=O)c3ccccc3NC(=O)COc3ccccc3F)cc(=O)n12
[1]
  AC50: 35.5 µM [falling, single point]
[2]
  AC50: 35.5 µM [falling, single point]

## O=C(c1ccc(NS(=O)(=O)c2cccs2)cc1)N1CCCCC1
[2]
  AC50: 1.26 µM [rising, partial curve]
